Numbering of substitutions follows the chain as printed. Results are given in words; binding and its absence hold for the method and conditions named. For some of these results: Binding seen in cells or lysates may run through a third protein. Some entries that bind do so weakly or less than the wild type. For some of these results: Where a sequence is shown, tags or fusion partners need not be part of it. Each block holds one binder with its values, some of them ahead of it.
Legend:
[1] = molecular target: T1, 14-3-3ε (human), P62258; test: crystal structure; 14-3-3ε (10 mg/ml) co-crystallised with 0.5 mM PEAK3^tandem-pS69 peptide, sitting drop, 20 °C, 2 M ammonium sulfate, 0.1 M sodium bicine pH 9.35, 5% MPD; both purified; details: remark: other sources report otherwise
T1 chain: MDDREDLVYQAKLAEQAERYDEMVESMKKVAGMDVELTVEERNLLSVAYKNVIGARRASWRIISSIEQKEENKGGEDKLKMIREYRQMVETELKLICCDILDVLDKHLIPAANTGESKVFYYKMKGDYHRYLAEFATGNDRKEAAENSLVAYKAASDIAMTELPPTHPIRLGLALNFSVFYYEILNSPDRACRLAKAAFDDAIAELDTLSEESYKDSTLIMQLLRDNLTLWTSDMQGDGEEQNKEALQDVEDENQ

[2] = molecular target: T2, HA-tagged PEAK3FL WT (human) (UniProt Q6ZS72); test: co-IP; anti-HA agarose IP from lysates of HEK293 cells expressing HA-PEAK3FL WT or mutants (alone or with Flag-PEAK3FL WT), Western blot
T2 sequence: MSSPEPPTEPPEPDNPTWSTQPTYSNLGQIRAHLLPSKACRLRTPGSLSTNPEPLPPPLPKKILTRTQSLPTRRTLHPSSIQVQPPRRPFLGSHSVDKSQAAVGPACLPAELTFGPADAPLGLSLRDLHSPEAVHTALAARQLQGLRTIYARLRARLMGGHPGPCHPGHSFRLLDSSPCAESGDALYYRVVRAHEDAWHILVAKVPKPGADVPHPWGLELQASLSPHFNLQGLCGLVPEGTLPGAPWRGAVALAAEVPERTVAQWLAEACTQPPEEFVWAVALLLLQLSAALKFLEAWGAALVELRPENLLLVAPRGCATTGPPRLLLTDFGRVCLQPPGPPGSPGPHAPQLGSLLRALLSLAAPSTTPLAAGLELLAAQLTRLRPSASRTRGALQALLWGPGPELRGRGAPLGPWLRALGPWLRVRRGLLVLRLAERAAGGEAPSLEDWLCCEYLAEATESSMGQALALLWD

[3] = molecular target: full length PEAK3 from insect cells (PEAK3^FL, S69 phosphorylated) (human) (UniProt Q6ZS72); test: SEC-MALS; PEAK3^FL:14-3-3ε,ζ complex co-purified from Sf21 cells (120 μg), Superdex 200 Increase 10/300, 20 mM HEPES pH 7.5, 150 mM NaCl, 1 mM TCEP
[4] = molecular target: T3, HA-tagged PEAK3^FL-A436E (human) (UniProt Q6ZS72); test: co-IP; HEK293 cells transfected with HA-PEAK3^FL forms (alone or with Flag-PEAK3^FL WT), lysates on anti-HA agarose at 4 °C overnight, Western blot
T3 sequence: T2 sequence with A436E

[5] = molecular target: T4, HA-tagged PEAK3^FL-L146E (human) (UniProt Q6ZS72); test: as above
T4 sequence: T2 sequence with L146E

[6] = molecular target: T5, HA-tagged PEAK3^FL-C453E (human) (UniProt Q6ZS72); test: as above
T5 sequence: T2 sequence with C453E

[7] = molecular target: full length CrkII, dimer (CrkIIFL dimer) (human), P46108; test: SEC; S75 16/600 profile of the purified CrkII constructs, with SDS-PAGE of fractions; both purified; details: remark: other sources report otherwise
[8] = molecular target: full length CrkII, dimer (CrkIIFL dimer) (human), P46108; test: SEC; S200 10/300, 50 µM purified CrkIIFL dimer or monomer re-run after thawing and after 45 h at 4 °C; 20 mM HEPES pH 7.5, 150 mM NaCl, 1 mM TCEP; both purified; details: remark: other sources report otherwise
[9] = molecular target: T6, HA-tagged PEAK3^FL WT (human), Q6ZS72; test: co-IP; HEK293 cells transfected with HA-PEAK3^FL forms (alone or with Flag-PEAK3^FL WT), lysates on anti-HA agarose at 4 °C overnight, Western blot; details: remark: other sources report otherwise
T6 chain: T2 sequence

[10] = molecular target: T7, HA-tagged PEAK3FL WT (human), Q6ZS72; test: co-IP; anti-HA agarose IP from lysates of HEK293 cells expressing HA-PEAK3FL WT or mutants (alone or with Flag-PEAK3FL WT), Western blot; details: remark: other sources report otherwise
T7 chain: T2 sequence

binding [1]: binds
B1: 14-3-3ε, P62258-1 1-255 (protein)
chain: T1 chain

binding [2]: binds
B2: Flag-tagged PEAK3FL WT (protein, UniProt Q6ZS72 1-473)
chain: T2 sequence

binding [3]: binds
B3: full length PEAK3 from insect cells (PEAK3^FL, S69 phosphorylated) (protein, UniProt Q6ZS72 1-473)
chain: T2 sequence
modifications: phosphoserine at 69; biotin (EZ-Link NHS-PEG4-Biotin) where immobilised for SPR

binding [4]: no binding | binding [5]: no binding | binding [6]: no binding
B4: Flag-tagged PEAK3^FL WT (protein, UniProt Q6ZS72 1-473)
chain: T2 sequence

binding [7]: binds | binding [8]: binds
B5: full length CrkII, dimer (CrkIIFL dimer), P46108-1 1-304 (natural protein)
chain: MAGNFDSEERSSWYWGRLSRQEAVALLQGQRHGVFLVRDSSTSPGDYVLSVSENSRVSHYIINSSGPRPPVPPSPAQPPPGVSPSRLRIGDQEFDSLPALLEFYKIHYLDTTTLIEPVSRSRQGSGVILRQEEAEYVRALFDFNGNDEEDLPFKKGDILRIRDKPEEQWWNAEDSEGKRGMIPVPYVEKYRPASASVSALIGGNQEGSHPQPLGGPEPGPYAQPSVNTPLPNLQNGPIYARVIQKRVPNAYDKTALALEVGELVKVTKINVSGQWEGECNGKRGHFPFTHVRLLDQQNPDEDFS
modifications: here or on the partner: biotin (EZ-Link NHS-PEG4-Biotin) in the SPR experiment only; biotin (EZ-Link NHS-PEG4-Biotin) in the SPR experiment only

binding [9]: binds | binding [10]: binds
B6: endogenous CrkII (HEK293), P46108-1 1-304 (protein)
chain: B5 chain
